Laboratory results as given in PubChem BioAssay AID1508600 (Functional Genomics Laboratory (NCATS/FGL), 2020).
The campaign covered roughly 53,000 sequences. About 3,700 (7%) were called active.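 The calls were made as follows: active = gene knockdowns whose robust z-score for IL-1 alpha signal is at least 2 or at most -2, so actives lie on both sides; inactive = the rest.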 The list shows a part of the results.

Experiment: Components of the Cytosolic LPS Sensing Pathway: Gene Identification via Genome-wide siRNA Screen;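 also: robust z of the log signal after scaling to non-targeting control siRNA wells of the plate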
Details: RAW264.7 macrophages, IL-1a HTRF, actives lie on both sides, screened at 100 nM (by protocol), cells primed 5 h with Pam3CSK4 first
How it was run: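 Knockdown: 100 nM siRNA, 48h, RAW264.7. Stimulation: Pam3CSK4 5 h, then LipidA via TransIT-TKO 24 h. Output: supernatant IL-1a HTRF, negative-control-normalized, log robust z-score; viability by CellTiter-Glo.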

z-score, active:
GAUUAGCAUCCAUGAACACTT against Tcl1b2 2.16
GGACAAGAUGAACUUUUCCTT against Pomp -2.85
GUGGAAGACUUCACCGGACTT against Arxes1 2.01

z-score, inactive:
GCAGAGGGUUUUCCAAGCGTT against Ddx4 -0.631
GGCUGUUAAUGCAAAAAAATT against Ern2 -0.0576
GGUUCUUCCAAAUGAUCCATT against Ccnh -0.505
GGACAUCGAUCCCUUUGACTT against Tsr3 -1.13
CCCUCUUGACACGUUCAAGTT against Serpina3n 1.09
GGGAUGAAGUUUGAGGACGTT against Mrps11 -0.436
GGUAUUCAUUCUUUCAGUCTT against Hoxa1 1.04
UGGUUGUGAUCAACAGAAUTT against Cyp2d12 -0.933
GGAAAGGAGUCUGCCAGCUTT against Tef -1.29
GCAUGCCUCUCUCAAGUCUTT against Olfr849 -1.32
GGAGUACAUAGCUAAUGUGTT against Lemd2 -1.12
CGGGAAUAAGAUCUUUCUGTT against Zbtb22 1.43
GGAAGCCUAUGAACUUAAUTT against Zfp180 0.537
GCUCUCGUGAGAGUUGCCATT against Kash5 0.483
GGGAAUUGCUCAAAGUAAATT against Nqo1 -0.13
GGUAUUUGAAUUUCGUCCCTT against Zc3h15 0.122
GGAAUUCUUCUACUUUCAATT against Tpd52l1 -1.93
GUAGUAAUAUCAUGGGCCUTT against Olfr339 0.0838
GGAGUUCCAGCAGCUCUAUTT against Vsnl1 0.741
GGAAGAGGCUGAGAAGCUATT against Pabpn1 -1.69
GGAAAAGAUCUGUUUCUCATT against Cdhr5 -0.204
GGAAAAUAGGGCGACAAAUTT against Tdrd7 0.673
ACGGUACUCAGUGCAAGCATT against Scarf1 1.69
GGUGACAAGCGGAUCUUUCTT against Kcne1 0.291
GCCACUUAACCUUCAAAAGTT against Gtsf2 -0.402
GGCAGAAGGCAAAGAAAGGTT against Cyp3a11 -0.58
GGAAGGAAGUCUCAACUCGTT against Lhx5 -0.945
CAUACCUCCACUACUCAAGTT against Olfr1113 -0.575
GAUGGACCAGUACAGAAUUTT against Aph1b 1.41
GGUCUUCAAUUUCUUCAAATT against 4930430F08Rik 0.928
GGAUCAAAUGAAGAGGGAATT against Skor1 -1.54
GCCUAAUGUCAACAUGAAGTT against Elp4 -1.16
GGGUAACUGGAUAGGAGAATT against Pi15 0.089
GGGAGUUUGGCAACUACCUTT against Fkbp6 -0.668
GGUGCUCAUGCAGGUCCAUTT against Slc25a25 -0.356
GCGUGACACUAACAAAAAGTT against Arhgef37 -1.33
GCGCGUCUAAAGCCGUAAATT against H1f2 0.219
GGGACUGUGUGUAAAGGACTT against Tmem134 -1.21
GGGACAGGUGCCAUUGACATT against Tut7 0.395
GGCUUCCUUUUUGAAGCUATT against Slc35b4 0.258
GGAAAUCACCAUGCCCUCUTT against S100a8 -0.0382
GGAUAUCGUCUGCUACCUGTT against Dgkb 0.945
GGCCAAAUGGACAAUCCAUTT against Dnah2 1.29
GGAUCUAAGCCUGUUGUGATT against Zfp647 -0.82
GGAUAAAGAGUUUUACAGATT against Srgn -0.99
GGAUUCAAUAUCAAUUGGATT against Htr2c 0.432
GGUACACAAUCUCCAAUGCTT against Rpp30 -0.586
GGCUAUGCUGAUCUGAAGATT against Ccdc126 1.67
GGCUUUCGGCAGCAUCUUGTT against Tk1 -1.15
GGAUAUCAUGGACACUCAUTT against Atg16l1 0.269
GCAAGUCCACCAGACAACATT against Prl3b1 -0.215
GCGGAGAAUGGAAAAACUUTT against Enpep 1.05
GGAGAACAAGGCAUUCCUGTT against Col10a1 -1.08
GGACGUACACAUUUACAAATT against Mettl21a 0.000322
GGUGGACUUAUAUGGUUUUTT against St3gal1 0.408
GCAGAUCUUGUGAUUAAUGTT against Ildr1 0.882
GGAGUAAGACGGAAACGAGTT against Map3k1 -0.662
GGAAAAGGUGGAAGGCGGATT against Madd -0.196
GGUUGUUUGGAUUUUCUUCTT against Tars 1.46
CCGAUACAGGGACAGUCAUTT against Mrpl38 -1.71
CCUUAAACUUGGCCGAGGUTT against Trmt112 0.748
CGUAUCAAGAAGUGCUGUGTT against Kcnk9 -1.71
GCCACCAAUGUGCUUACAUTT against Cfhr2 0.69
GCUGGAGUUUCAGUCAAGGTT against Ctso -0.355
GGAACACAGUUAAGUGGAUTT against Vmn1r202 0.733

As a short view, some entries already given.
z-score, inactive:
GGUUCUUCCAAAUGAUCCATT against Ccnh -0.505
GGACAUCGAUCCCUUUGACTT against Tsr3 -1.13
CCCUCUUGACACGUUCAAGTT against Serpina3n 1.09
GGGAUGAAGUUUGAGGACGTT against Mrps11 -0.436
GGUAUUCAUUCUUUCAGUCTT against Hoxa1 1.04
UGGUUGUGAUCAACAGAAUTT against Cyp2d12 -0.933
GGAAAGGAGUCUGCCAGCUTT against Tef -1.29
GCAUGCCUCUCUCAAGUCUTT against Olfr849 -1.32
GGAGUACAUAGCUAAUGUGTT against Lemd2 -1.12
CGGGAAUAAGAUCUUUCUGTT against Zbtb22 1.43
GGAAGCCUAUGAACUUAAUTT against Zfp180 0.537
GCUCUCGUGAGAGUUGCCATT against Kash5 0.483
GGGAAUUGCUCAAAGUAAATT against Nqo1 -0.13
